Assay results: patent US20170333591A9, “ABSORBENT ARTICLE COMPRISING MALODOR REDUCTION COMPOSITIONS” (The Procter & Gamble Company, priority 2014, published 2017)

Key:
[1] = Melamine formaldehyde PMC Headspace Response Ratio
[2] = Melamine formaldehyde PMC leakage; settings: for Melamine formaldehyde PMC leakage (Comment Code): code letter J of the Comment Code column
[3] = code letter within the Comment Code cell

Row | SMILES | Comment Code: Melamine formaldehyde PMC Headspace Response Ratio [1] | Comment Code: Melamine formaldehyde PMC leakage [2] | further results
1 | CC=CCCC1CCCC(=O)O1 (racemic) [Material 187] | – | – | Melamine formaldehyde PMC Headspace Response Ratio (Comment Code I) [1, 3]: I (Melamine formaldehyde PMC Headspace Response Ratio greater than or equal to 10)
2 | CC(C)=CCCC(C)=CCC1CCCC1=O (racemic) [Material 307] | – | – | Melamine formaldehyde PMC leakage (Comment Code J) [2, 3]: J (Melamine formaldehyde PMC leakage less than or equal to 5%)
3 | C=CC(C)CCC=C(C)CCC=O (racemic) [Material 358] | – | – | Melamine formaldehyde PMC leakage (Comment Code J) [2, 3]: J (Melamine formaldehyde PMC leakage less than or equal to 5%)
4 | C=CCCCCCCCC=CCC#N [Material 137] | – | – | Melamine formaldehyde PMC leakage (Comment Code J) [2, 3]: J (Melamine formaldehyde PMC leakage less than or equal to 5%)
5 | CC/C(C)=C/CC/C(C)=C\C#N [Material 158] | – | – | Melamine formaldehyde PMC leakage (Comment Code J) [2, 3]: J (Melamine formaldehyde PMC leakage less than or equal to 5%)
6 | CC(C)C=CCO [Material 194] | I (Melamine formaldehyde PMC Headspace Response Ratio greater than or equal to 10) | – | –
7 | CC1(C)[C@@H]2CC[C@@]1(C)[C@H](O)C2 [Material 232] | – | J (Melamine formaldehyde PMC leakage less than or equal to 5%) | –
8 | CCCCCCCC1CCC(=O)O1 (centres unmarked) [Material 316] | – | – | Melamine formaldehyde PMC leakage (Comment Code J) [2, 3]: J (Melamine formaldehyde PMC leakage less than or equal to 5%)
9 | CC1=CCCC2(C)OC2CCC(C)=CCC1 (centres unmarked) [Material 568] | – | – | Melamine formaldehyde PMC leakage (Comment Code) [2]: J (Melamine formaldehyde PMC leakage less than or equal to 5%)
10 | CCCCCC(=O)O [Material 583] | I (Melamine formaldehyde PMC Headspace Response Ratio greater than or equal to 10) | – | –
11 | CC1(C)C2CCC1(C)C(O)C2 (centres unmarked) [Material 605] | – | J (Melamine formaldehyde PMC leakage less than or equal to 5%) | –
12 | CCc1ccc(OC)c(O)c1 [Material 797] | I (Melamine formaldehyde PMC Headspace Response Ratio greater than or equal to 10) | – | –
13 | CC(=O)OC(C)CCC=C(C)CCC=C(C)C (centres unmarked) [Material 881] | – | – | Melamine formaldehyde PMC leakage (Comment Code) [2]: J (Melamine formaldehyde PMC leakage less than or equal to 5%)
14 | CC1=CC[C@@H]2C[C@H]1C2(C)C [Material 901] | I (Melamine formaldehyde PMC Headspace Response Ratio greater than or equal to 10) | J (Melamine formaldehyde PMC leakage less than or equal to 5%) | –
15 | CC1=CC[C@H]2C[C@@H]1C2(C)C [Material 903] | I (Melamine formaldehyde PMC Headspace Response Ratio greater than or equal to 10) | J (Melamine formaldehyde PMC leakage less than or equal to 5%) | –
16 | CC(C)(C)C(=O)OC1CC2CC1C1CC=CC21 (centres unmarked) [Material 978] | – | J (Melamine formaldehyde PMC leakage less than or equal to 5%) | Melamine formaldehyde PMC leakage (Comment Code) [2]: J (Melamine formaldehyde PMC leakage less than or equal to 5%)
17 | CC1CC2C3CCC(C3)C2CC1=O (centres unmarked) [Material 980] | – | – | Melamine formaldehyde PMC leakage (Comment Code) [2]: J (Melamine formaldehyde PMC leakage less than or equal to 5%)
18 | CC1=CCC2CC1C2(C)C (centres unmarked) [Material 1001] | I (Melamine formaldehyde PMC Headspace Response Ratio greater than or equal to 10) | J (Melamine formaldehyde PMC leakage less than or equal to 5%) | –
19 | C=C(C)[C@@H]1CC[C@@H](C)C(=O)C1 [Material 1081] | I (Melamine formaldehyde PMC Headspace Response Ratio greater than or equal to 10) | J (Melamine formaldehyde PMC leakage less than or equal to 5%) | –
20 | COC(=O)c1c(C)cc(O)c(C)c1O [Material 1117] | – | – | Melamine formaldehyde PMC leakage (Comment Code J) ([2]; Comment Code letter J): J (Melamine formaldehyde PMC leakage less than or equal to 5%); Melamine formaldehyde PMC Headspace Response Ratio (Comment Code I) ([1]; Comment Code letter I): I (Melamine formaldehyde PMC Headspace Response Ratio greater than or equal to 10)

Some entries repeat one wording, which the source may state once for all of them.
